EP0625164 (dated 1993)
For part of these data: Strings that start with PEPTIDE1 are HELM notation: dots part the residues, brackets hold end groups and non-standard residues.

Assays:
[1] = general procedure: Boc solid-phase peptide synthesis; oxime resin (substitution level = 0.96 mmol/g); HBTU / N-methylmorpholine; conditions: for isolated yield: overall; for cyclisation yield: cyclisation step
[2] = general procedure: Boc solid-phase peptide synthesis; oxime resin; HBTU / N-methylmorpholine; conditions: whole synthesis, scale 1.05 mmol, TFA salt
[3] = late stage modification step, fluoride salt
[4] = whole synthesis, scale 0.498 mmol, TFA salt
[5] = whole synthesis, scale 0.336 mmol, TFA salt
[6] = late stage modification step, acetate salt
[7] = whole synthesis, scale 0.43 mmol, TFA salt
[8] = whole synthesis, scale 0.586 mmol, TFA salt
[9] = late stage modification step, TFA salt
[10] = whole synthesis, scale 0.101 mmol, TFA salt
[11] = whole synthesis, scale 0.244 mmol, TFA salt
[12] = whole synthesis, scale 0.611 mmol, TFA salt
[13] = whole synthesis, scale 0.115 mmol, TFA salt
[14] = whole synthesis, scale 0.596 mmol, TFA salt
[15] = purification step, TFA salt, run 1
[16] = whole synthesis, TFA salt, run 1

## Boc-D-Val-NMeArg(Tos)-Gly-Asp (OcHex)-MAMB-Ox
[1]; coupling step, TFA salt
  step yield: 86%

## PEPTIDE1{[D-Abu].[di-NMeOrn].G.D.[Mamb]}$PEPTIDE1,PEPTIDE1,1:R1-5:R2$$$V2.0
[1]; [3]
  step yield: 86%
[1]; purification step, TFA salt
  step yield: 49.3%
[1]; whole synthesis, TFA salt
  isolated yield: 14.2%
[1]; [4]
  crude mass: 150 mg
  crude yield: 39.3%

## PEPTIDE1{[Gly].[NMeArg].[Gly].[Asp].[Mamb]}$PEPTIDE1,PEPTIDE1,5:R2-1:R1$$$V2.0
[1]; purification step, TFA salt
  step yield: 21% recovery
[1]; whole synthesis, TFA salt
  isolated yield: overall yield 16.3%
[1]; [5]
  crude mass: 218 mg
  crude yield: 84%

## PEPTIDE1{[NMeGly].[NMeArg].[Gly].[Asp].[Mamb]}$PEPTIDE1,PEPTIDE1,5:R2-1:R1$$$V2.0
[1]; [6]
  step yield: 97%
[1]; purification step, TFA salt
  step yield: 14.7%
[1]; whole synthesis, TFA salt
  isolated yield: 7.9%
[1]; [7]
  crude mass: 205 mg
  crude yield: 60%

## PEPTIDE1{[Pro].[NMeArg].[Gly].[Asp].[Mamb]}$PEPTIDE1,PEPTIDE1,5:R2-1:R1$$$V2.0
[1]; [6]
  step yield: 79%
[1]; purification step, TFA salt
  step yield: 5.8%
[1]; whole synthesis, TFA salt
  isolated yield: 2.1%
[1]; [7]
  crude mass: 170 mg
  crude yield: 48.8%

## PEPTIDE1{[bAla].[NMeArg].[Gly].[Asp].[Mamb]}$PEPTIDE1,PEPTIDE1,5:R2-1:R1$$$V2.0
[1]; purification step, TFA salt
  step yield: 53.2%
[1]; whole synthesis, TFA salt
  isolated yield: 32.5%
[1]; [8]
  crude mass: 264 mg

## PEPTIDE1{[dAbu].[NMeArg].[Gly].[Asp].[Mamb]}$PEPTIDE1,PEPTIDE1,5:R2-1:R1$$$V2.0
[1]; [9]
  step yield: 68.7%
[1]; purification step, TFA salt
  step yield: 31% recovery
[1]; whole synthesis, TFA salt
  isolated yield: overall yield 12.4%
[1]; [10]
  crude mass: 51 mg
  crude yield: 63%

## PEPTIDE1{[dAla].[NMeArg].[Gly].[Asp].[Mamb]}$PEPTIDE1,PEPTIDE1,5:R2-1:R1$$$V2.0
[1]; whole synthesis, TFA salt
  difficulty met: Recoupling of the Boc-N-MeArg(Tos) residue was found to be necessary.
[1]; [11]
  crude mass: 117 mg
  crude yield: 61%

## PEPTIDE1{[dI].[NMeArg].G.D.[Mamb]}$PEPTIDE1,PEPTIDE1,1:R1-5:R2$$$V2.0
[1]; [3]
  step yield: 90%
[1]; purification step, TFA salt
  step yield: 22.5%
[1]; whole synthesis, TFA salt
  isolated yield: 12.1%
[1]; [12]
  crude mass: 349 mg
  crude yield: 69.2%

## PEPTIDE1{[dLeu].[NMeArg].[Gly].[Asp].[Mamb]}$PEPTIDE1,PEPTIDE1,5:R2-1:R1$$$V2.0
[1]; [6]
  step yield: 63%
[1]; purification step, TFA salt
  step yield: 29%
[1]; whole synthesis, TFA salt
  isolated yield: 16.5%
[1]; [13]
  crude mass: 92.4 mg
  crude yield: 98%

## PEPTIDE1{[dLys].[NMeArg].[Gly].[Asp].[Mamb]}$PEPTIDE1,PEPTIDE1,5:R2-1:R1$$$V2.0
[1]; late stage modification step, difluoride salt
  step yield: 79.1%
[1]; purification step, TFA salt
  step yield: 33.6%
[1]; whole synthesis, TFA salt
  isolated yield: 12.1%
[1]; [8]
  crude mass: 349 mg
  crude yield: 58.9%

## PEPTIDE1{[dNle].[NMeArg].[Gly].[Asp].[Mamb]}$PEPTIDE1,PEPTIDE1,5:R2-1:R1$$$V2.0
[1]; [3]
  step yield: 95.4%
[1]; purification step, TFA salt
  step yield: 44%
[1]; whole synthesis, TFA salt
  isolated yield: 22.9%
[1]; [8]
  crude mass: 305 mg
  crude yield: 63.3%

## PEPTIDE1{[dPhe].[NMeArg].[Gly].[Asp].[Mamb]}$PEPTIDE1,PEPTIDE1,5:R2-1:R1$$$V2.0
[1]; purification step, TFA salt
  step yield: 35%
[1]; whole synthesis, TFA salt
  isolated yield: 8.7%
[1]; [12]
  crude mass: 140 mg
  crude yield: 26.7%

## PEPTIDE1{[dPhg].[NMeArg].[Gly].[Asp].[Mamb]}$PEPTIDE1,PEPTIDE1,5:R2-1:R1$$$V2.0
[1]; [3]
  step yield: 98.9%
[1]; purification step, TFA salt
  step yield: 24.2%
[1]; whole synthesis, TFA salt
  isolated yield: 11.9%
[1]; [12]
  crude mass: 296 mg
  crude yield: 57.4%

## PEPTIDE1{[dPro].[NMeArg].[Gly].[Asp].[Mamb]}$PEPTIDE1,PEPTIDE1,5:R2-1:R1$$$V2.0
[1]; [6]
  step yield: 93.3%
[1]; purification step, TFA salt
  step yield: 6.4%
[1]; whole synthesis, TFA salt
  isolated yield: 3.3%
[1]; [7]
  crude mass: 211 mg
  crude yield: 60.8%

## PEPTIDE1{[dTyr].[NMeArg].[Gly].[Asp].[Mamb]}$PEPTIDE1,PEPTIDE1,5:R2-1:R1$$$V2.0
[1]; purification step, TFA salt
  step yield: 11.3%
[1]; whole synthesis, TFA salt
  isolated yield: 10.8%
[1]; whole synthesis, scale 0.313 mmol, TFA salt
  crude mass: 342 mg

## PEPTIDE1{[dV].[NMeArg].G.D.[2AmPhAc]}$PEPTIDE1,PEPTIDE1,1:R1-5:R2$$$V2.0
[1]; coupling step, TFA salt
  step yield: 95%
[1]; TFA salt
  cyclisation yield: 68%
[1]; [9]
  step yield: 75%

## PEPTIDE1{[dV].[NMeArg].G.D.[2Amb]}$PEPTIDE1,PEPTIDE1,1:R1-5:R2$$$V2.0
[1]; [9]
  step yield: 12%

## PEPTIDE1{[dV].[NMeArg].G.D.[3APhAc]}$PEPTIDE1,PEPTIDE1,1:R1-5:R2$$$V2.0
[1]; [9]
  step yield: 50%

## PEPTIDE1{[dVal].[NMeArg].[Gly].[Asp].[Mamb]}$PEPTIDE1,PEPTIDE1,5:R2-1:R1$$$V2.0
Peptide synthesis; [6]
  step yield: 82%
Peptide synthesis; purification step, TFA salt
  step yield: approximately 40%
[1]; [9]
  step yield: 70%
[1]; purification step, TFA salt
  step yield: 24% recovery
[1]; whole synthesis, TFA salt
  isolated yield: overall yield 9.4%
[1]; [10]
  crude mass: 49 mg
  crude yield: 60%

## PEPTIDE1{[dVal].[NMeArg].[Gly].[Asp].[NMeMamb]}$PEPTIDE1,PEPTIDE1,5:R2-1:R1$$$V2.0
[1]; [3]
  step yield: 93.5%
[1]; purification step, TFA salt
  step yield: 34.2%
[1]; whole synthesis, TFA salt
  isolated yield: 29.9%
[1]; whole synthesis, scale 0.456 mmol, TFA salt
  crude mass: 406 mg

## PEPTIDE1{[dVal].[NMeArg].[Gly].[NMeAsp].[Mamb]}$PEPTIDE1,PEPTIDE1,5:R2-1:R1$$$V2.0
[1]; [3]
  step yield: 96.4%
[1]; purification step, TFA salt
  step yield: 28.2%
[1]; whole synthesis, TFA salt
  isolated yield: 10.9%
[1]; [12]
  crude mass: 232 mg
  crude yield: 46.1%

## PEPTIDE1{[dVal].[NMeArg].[Gly].[dAsp].[Mamb]}$PEPTIDE1,PEPTIDE1,5:R2-1:R1$$$V2.0
[1]; purification step, TFA salt
  step yield: 44.4%
[1]; whole synthesis, TFA salt
  isolated yield: 20.7%
[1]; [12]
  crude mass: 257 mg
  crude yield: 51.9%

## PEPTIDE1{[dVal].[NMeArg].[bAla].[Asp].[Mamb]}$PEPTIDE1,PEPTIDE1,5:R2-1:R1$$$V2.0
[1]; [3]
  step yield: 93.2%
[1]; purification step, TFA salt
  step yield: 43.6%
[1]; whole synthesis, TFA salt
  isolated yield: 16.5%
[1]; [8]
  crude mass: 227 mg
  crude yield: 46.9%

## PEPTIDE1{[dVal].[dNMeArg].[Gly].[Asp].[Mamb]}$PEPTIDE1,PEPTIDE1,5:R2-1:R1$$$V2.0
[1]; purification step, TFA salt
  step yield: 14.8%
[1]; whole synthesis, TFA salt
  isolated yield: 5.3%
[1]; [14]
  crude mass: 186 mg
  crude yield: 38.6%

## TFA·D-Val-NmeArg(Tos)-Gly-Asp (OcHex) -MAMB-Ox
[1]; [9]
  step yield: 98%

## cycle-(D-Val-NMeArg-Gly-Asp-3-aminomethyl-4-chlorobenzoic acid)
[1]; [9]
  step yield: 39%

## cyclo(·D-Val-NmeArg(Tos) -Gly-Asp (OcHex)-MAMB)
[1]; TFA salt
  cyclisation yield: 86%

## cyclo-(D-Abu-NMeArg-Gly-Asp-iodo-Mamb)
[1]; purification step, TFA salt
  step yield: 28.7%
[1]; whole synthesis, TFA salt
  isolated yield: 30.2%
[1]; whole synthesis, scale 3.53 mmol, TFA salt
  crude mass: 4070 mg

## cyclo-(D-Val-NMeAmf-Gly-Asp-Mamb)
[1]; purification step, TFA salt
  step yield: 8.1%
[1]; whole synthesis, TFA salt
  isolated yield: 4.1%
[1]; [8]
  crude mass: 189 mg
  crude yield: 39.9%

## cyclo-(D-Val-NMeArg-Gly-Asp-3-aminomethyl-4-methoxybenzoic acid)
[1]; [9]
  step yield: 32%

## cyclo-(D-Val-NMeArg-Gly-Asp-3-aminomethyl-4-methylbenzoic acid)
[1]; [9]
  step yield: 42%

## cyclo-(D-Val-NMeArg-Gly-Asp-3-aminomethyl-6-chlorobenzoic acid)
[1]; [9]
  step yield: 54%

## cyclo-(D-Val-NMeArg-Gly-Asp-3-aminomethyl-6-iodobenzoic acid)
[1]; [9]
  step yield: 46%

## cyclo-(D-Val-NMeArg-Gly-Asp-3-aminomethyl-6-methylbenzoic acid)
[1]; [9]
  step yield: 27%

## cyclo-(D-Val-NMeArg-Gly-Asp-4-aminomethylbenzoic acid) [87]
[1]; [15]
  step yield: 17.1%
[1]; [16]
  isolated yield: 9.3%

## cyclo-(D-Val-NMeArg-Gly-Asp-4-aminomethylbenzoic acid) [88]
[1]; [15]
  step yield: 13.4%
[1]; [16]
  isolated yield: 7.3%

## cyclo-(D-Val-NMeArg-Gly-Asp-aminomethylnaphthoic acid)
[1]; purification step, TFA salt
  step yield: 12.1%
[1]; whole synthesis, TFA salt
  isolated yield: 7.8%
[1]; whole synthesis, scale 0.737 mmol, TFA salt
  crude yield: 73.1%

## cyclo-(D-Val-NMeArg-Gly-Asp-iodo-Mamb)
[2]
  crude mass: 460 mg
  crude yield: 46.8%
[1]; [6]
  step yield: 95.6%
[1]; purification step, TFA salt
  step yield: 39.7% recovery
[1]; whole synthesis, TFA salt
  isolated yield: overall yield 16.6%

## cyclo-(D-Val-NMeArg-L-Ala-Asp-Mamb)
[1]; [3]
  step yield: 83%
[1]; purification step, TFA salt
  step yield: 19.9%
[1]; whole synthesis, TFA salt
  isolated yield: 10.6%
[1]; [12]
  crude mass: 375 mg
  crude yield: 74.6%

## cyclo-(D-val-NMeArg-Gly-Asp-3-aminomethyl-6-methoxybenzoic acid)
[1]; [9]
  step yield: 63%
